# Results as given in the supplement of paper PMC5949888.
# Most values lie at the floor of the assay. Slopes are relative: functional sequences can read slightly below zero.
# Tested on: Saccharomyces cerevisiae PS128 hsf1 delta, HSF1(1-493) fusion
# Assay: growth estimate (transactivation domain function in HSF1 fusion, heat-shock survival) (a.u. (slope of normalised read count over time)); higher = stronger growth at 37°C, i.e. more transactivation activity
# Details: library: random library
row,Substance,growth estimate
1,NSLAKMSTRA,< -0.25
2,VSLRDSGLRRAYGRGAVRKG,< -0.25
3,VWLASMASGLGKNW,< -0.25
4,ANPR,< -0.25
5,VNSIESTGNT,< -0.25
6,ADASLVQGL,< -0.25
7,ASP,< -0.25
8,NARDSCTSG,< -0.25
9,IQLSTRECVRAGAMR,< -0.25
10,ARKIFFSTWCPCVRRQCTKL,< -0.25
11,LLRARDCPSRLTSAYSSDIP,< -0.25
12,ICASMHLFAY,< -0.25
13,LPRETE,< -0.25
14,SRCVRLLGDPCMLPAV,< -0.25
15,TACGQESSALFARSRQKGLS,< -0.25
16,FIR,< -0.25
17,TGLDPGFGLRGWERGLAL,< -0.25
18,SQLHASNHPP,< -0.25
19,FPARNTFYE,< -0.25
20,QCRPYVLTIARPHTRLRDAL,< -0.25
21,LYAAPVSSWAWDCQDNTVYY,-0.0145
22,RCNIK,< -0.25
23,FPASEDRTCPDNMLIESGSA,< -0.25

# Some of the entries so far, with tabs.
row	Substance	growth estimate
12	ICASMHLFAY	< -0.25
13	LPRETE	< -0.25
14	SRCVRLLGDPCMLPAV	< -0.25
15	TACGQESSALFARSRQKGLS	< -0.25
16	FIR	< -0.25
17	TGLDPGFGLRGWERGLAL	< -0.25
18	SQLHASNHPP	< -0.25

# (cont.)

row,Substance,growth estimate
1,YFTWYRIRDDDEDQ,< -0.25
2,SQSNRWSKQASWRLGRRHRA,< -0.25
3,AGSKSAESEACGI,< -0.25
4,LGSEI,-0.246
5,RPQTEPKFRRSSIPLAGCEV,< -0.25
6,ADS,< -0.25
7,IPRCNCRRVIGVCGKSLFSA,< -0.25
8,QTAIIHAGMTACFGALEG,< -0.25
9,ARDLISTIMLSLE,< -0.25
10,RKYPWRVTSTFLELFRQ,< -0.25
11,LGLPACHLKTSFIESVRYPT,< -0.25
12,FCPPGAARGRRALAEF,< -0.25
13,TQTLFERRASYHGIY,< -0.25
14,GISGFLQGN,< -0.25
15,EVPIGYEILSIGTPRSARQG,< -0.25
16,RDSSFHHTNFLLSAWRQR,< -0.25
17,LADLMNVKACAPGE,< -0.25
18,PSKIERPKLRRR,< -0.25
19,LIHEHSEVHQSVTGHVVWPN,< -0.25
20,LKKLSTAFLTGRQ,< -0.25
21,CITGTRSLHMDELFTGVPRE,< -0.25
22,GILPLLLHLGSWRNTMVCKR,< -0.25
23,DFLCCVTLNPCLLFQKVVGS,< -0.25

row,Substance,growth estimate
1,THLVA,< -0.25
2,NDLR,< -0.25
3,PMDAAMSERV,< -0.25
4,RSKSARRLSRDRPIWQRLRS,< -0.25
5,STRRRHPYAI,< -0.25
6,GNRDSYVRLNIYPRGFEVIR,< -0.25
7,LDTRPWGPDPGLDSNSFALG,< -0.25
8,PCIASVHSRQSSAGQRRITR,< -0.25
9,GSGLLVRGNKS,< -0.25
10,YVDD,< -0.25
11,GDRLR,< -0.25
12,VFIIRLRFHDSQQTCYFSSL,< -0.25
13,SCSTVTRPRPCKARRLPLNR,< -0.25
14,SEDLGQEDRAT,< -0.25
15,RQGTTRANSAEF,< -0.25
16,YASSKVFLRKAAYLWLKLRG,< -0.25
17,CAFGTRGAHLQSGLGCSAWS,< -0.25
18,LAPWCKGC,< -0.25
19,NIRWTWASPLPAGEVERISQ,< -0.25
20,GNVLL,< -0.25
21,SHCVSYGPRTADLRPSQSFL,< -0.25
22,FRA,< -0.25
23,VHV,< -0.25

row,Substance,growth estimate
1,GEGERVCVSVISTMRARWSC,< -0.25
2,LAERMV,< -0.25
3,HPRKNGVSMIAGEKGYCWGI,< -0.25
4,PSEIGLWRPGVSVNS,< -0.25
5,RALLAPPWSGLVCVCRCLWL,< -0.25
6,EGLSLVFACSVRTS,< -0.25
7,LGLYQVDHSIEPAVPPHK,< -0.25
8,GQSAFSYPFSIPQLGCCT,< -0.25
9,PTMVKAFGWCMFGWATIRCR,< -0.25
10,APASLR,< -0.25
11,GRDR,< -0.25
12,ELIFDAMRSHLCVERPSSVD,< -0.25
13,GQEGRAYSKVVLRLAERTPM,< -0.25
14,VSKGRSRNNLHSCRDAWTGE,< -0.25
15,VPGSAGNV,< -0.25
16,ILAILKSYSVRDYVLRSGCG,< -0.25
17,PNKYAGEHPLKSSWLYNPHG,< -0.25
18,FGFDRIRFPFQSTHQPA,< -0.25
19,RNRCWPGSSRY,< -0.25
20,WPGRIRSNYVRYHLFLWSGG,< -0.25
21,TVTF,< -0.25
22,GDCRSECGSLIVDEAVKRAL,< -0.25
23,PLKLLDLAHVCLGGGGKVER,< -0.25

# Random excerpt: 2 records from the list, in no set order.
row,Substance,growth estimate
5,RALLAPPWSGLVCVCRCLWL,< -0.25
16,ILAILKSYSVRDYVLRSGCG,< -0.25

# (further entries)

row,Substance,growth estimate
1,QGASALCTSIGDKFASSV,< -0.25
2,IRRGRTASLNLNRKSESAGA,< -0.25
3,RYRSIVDVNVI,< -0.25
4,LEFQRFRAGR,< -0.25
5,TYADIVGYYNLVGDIIHPCR,< -0.25
6,KASRTVGEERCAQTAIWNAP,< -0.25
7,TLALSLPSEPGTSDLVVGTS,< -0.25
8,RKVLAQSGHRDLEIRARSPT,< -0.25
9,CDPRHEWGYIVLLGSISVPL,< -0.25
10,SGE,< -0.25
11,LAGQVILPRRTEQQYSRSPW,-0.248
12,PMMVHDVCLPIYLYQRALRV,< -0.25
13,SWGP,< -0.25
14,LMVCCKPAPRILAVSSQMAI,< -0.25
15,CTTRARDV,< -0.25
16,SRLTLNMTASSGAVEVLTSH,< -0.25
17,PAD,< -0.25
18,TIHEVSG,< -0.25
19,WQGELSRQGSLRVRCLACLA,< -0.25
20,SCPVRRTFRIF,< -0.25
21,VGYGVRRT,< -0.25
22,GLRRLLEQKQ,-0.231
23,YKDRRSPGYALVV,< -0.25

row,Substance,growth estimate
1,CSDRRGRPVTRGL,< -0.25
2,DLHFSRSRDLRTACC,< -0.25
3,ALVTKRREVLGACVSGSTAR,< -0.25
4,GTYILGLTQLLRTGFTSSGH,< -0.25
5,PVVEWLAIKQAAGCSGCCAM,< -0.25
6,SWKEDRPSFFWVGFSWVDGV,< -0.25
7,LREGHCSLIEKVCTLRRAAR,< -0.25
8,RTGPGGF,< -0.25
9,RKLGQASTDTPTVHRRKAFR,< -0.25
10,RGT,< -0.25
11,TIVSCAACIHV,< -0.25
12,KAVVNSSLWATETRFPNPDV,< -0.25
13,YMFWVSLTESQGNAWIVSRL,< -0.25
14,CPLRGIGGWAYKVSRCGQSK,< -0.25
15,ARS,< -0.25
16,LEFFLSLLGTRYLPYYVRPP,< -0.25
17,SPQRNDRPCSNAGHYRVICP,< -0.25
18,GKSPSVHRTILFPTARGVLL,< -0.25
19,HWSINRVSSLKRLALRVGMG,< -0.25
20,FLRR,< -0.25
21,VTGLGVQVSVHTYSGVVHGG,< -0.25
22,AVIVVFIY,< -0.25
23,SPALSLSNLRLRDLSVRRDA,< -0.25

row,Substance,growth estimate
1,GNIHKVLGV,< -0.25
2,WCGWYEFSSGKNHRGQARLD,< -0.25
3,SIGNPVQHSV,< -0.25
4,TPMSVALSYGGY,< -0.25
5,RGSFHTERGPPGIFRHSLGE,< -0.25
6,WVL,< -0.25
7,NVHGQTSHTDPGFVSIWYLR,0.0464
8,LGC,< -0.25
9,DPKSSRHGFRSVSFCTCVDS,< -0.25
10,IAPVWDTDVISNLG,< -0.25
11,VPYSAVPSMETTAPGLAGQQ,< -0.25
12,ASRRS,< -0.25
13,RFAGAIRISPTNIFRGSRPG,< -0.25
14,VTPLRILLRVSG,< -0.25
15,YKGLTVAVWRAGVLNKSGGG,< -0.25
16,SYKGVARRRWHHGKVTTDS,< -0.25
17,PLTRLSRGLSI,< -0.25
18,IATSIVITFLVDQISGRVEG,< -0.253
19,IELGGPV,< -0.25
20,VPIQGWAFALVRQKGQHTTP,< -0.25
21,WWVIESDNRAL,-0.228
